Laboratory results taken from article PMC11784139.
Positions count from the first letter of the chain named. For some assays here: No signal at the amounts used counts as a negative. Where a protein sequence is shown, tags need not be part of it.

Tests used:
Test in all cases: EMSA
[1] = test system: T1, 6xHis-APR1 V303E (Acinetobacter venetianus RAG-1); details: 2.55 uM protein, DNA 110 nM; EMSA: 5 mM Tris-HCl pH 7.5, 0.1 mM EDTA, 5 mM MgCl2, 10 mM KCl, 0.2 mM DTT, 30 C, 30 min, native PAGE in 0.5x TBE; recombinant protein; residues 1-335; protein details: 6xHis; probe letters rebuilt from the primers and the genome
T1 sequence (looked up): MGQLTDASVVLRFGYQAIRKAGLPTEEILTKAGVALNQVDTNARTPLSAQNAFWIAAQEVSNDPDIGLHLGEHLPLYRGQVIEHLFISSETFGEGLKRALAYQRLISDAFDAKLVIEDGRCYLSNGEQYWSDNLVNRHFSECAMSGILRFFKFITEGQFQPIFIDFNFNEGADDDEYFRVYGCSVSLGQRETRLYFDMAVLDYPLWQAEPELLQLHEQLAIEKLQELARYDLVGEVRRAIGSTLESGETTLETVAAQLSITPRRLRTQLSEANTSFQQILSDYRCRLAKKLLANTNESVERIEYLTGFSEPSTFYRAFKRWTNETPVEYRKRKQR

[2] = test system: T2, 6xHis-APR1 F318S (Acinetobacter venetianus RAG-1); details: 2.55 uM protein, DNA 110 nM; EMSA: 5 mM Tris-HCl pH 7.5, 0.1 mM EDTA, 5 mM MgCl2, 10 mM KCl, 0.2 mM DTT, 30 C, 30 min, native PAGE in 0.5x TBE; recombinant protein; residues 1-335; protein details: 6xHis; probe letters rebuilt from the primers and the genome
T2 sequence (looked up): T1 sequence (looked up) with E303V, F318S

[3] = test system: T3, 6xHis-APR1 T306L (Acinetobacter venetianus RAG-1); details: 2.55 uM protein, DNA 110 nM; EMSA: 5 mM Tris-HCl pH 7.5, 0.1 mM EDTA, 5 mM MgCl2, 10 mM KCl, 0.2 mM DTT, 30 C, 30 min, native PAGE in 0.5x TBE; recombinant protein; residues 1-335; protein details: 6xHis; probe letters rebuilt from the primers and the genome
T3 sequence (looked up): T1 sequence (looked up) with E303V, T306L

[4] = test system: T4, 6xHis-APR1 F314S (Acinetobacter venetianus RAG-1); details: 2.55 uM protein, DNA 110 nM; EMSA: 5 mM Tris-HCl pH 7.5, 0.1 mM EDTA, 5 mM MgCl2, 10 mM KCl, 0.2 mM DTT, 30 C, 30 min, native PAGE in 0.5x TBE; recombinant protein; residues 1-335; protein details: 6xHis; probe letters rebuilt from the primers and the genome
T4 sequence (looked up): T1 sequence (looked up) with E303V, F314S

[5] = test system: T5, MBP-APR1 L265S (Acinetobacter venetianus RAG-1); details: 2.55 uM protein, DNA 110 nM; EMSA: 5 mM Tris-HCl pH 7.5, 0.1 mM EDTA, 5 mM MgCl2, 10 mM KCl, 0.2 mM DTT, 30 C, 30 min, native PAGE in 0.5x TBE; recombinant protein; residues 1-335; protein details: MBP; probe letters rebuilt from the primers and the genome
T5 sequence (looked up): T1 sequence (looked up) with L265S, E303V

“AATCAATTGTTTATACTCTATTAACAGCTTGTTTTATAACATTATGATTGCTAAAGGTTAACTCGATGCTTTGTATGTGAGTGTATTGAGCTTTCTATTTACATCAAAATTTTATAACAAATTATTTATACATTCATTGTGATTAACATATTTTTCATACTTTACACATATTACTTAAATTAAGTTTTTTGGTTATACGGAAAAAATGAATTTTTCTTAAACTCTGATCCTTTAATAAATTGCAAATCCAAGCAAAAATCTCAGGATTTTTTACACTCTCTTTTTCTAAAAATGTCCCGAAGTGACATGAAAAAACCGATGAATGACTAAACTTGACATTGTGTATTGTCAAATTTGTGCTTTAATAAAGTCATGGTTTATACAGGGTAT (double strand) [almA promoter]”: no binding [1]; no binding [2]; binds [3]. “AATCAATTGTTTATACTCTATTAACAGCTTGTTTTATAACATTATGATTGCTAAAGGTTAACTCGATGCTTTGTATGTGAGTGTATTGAGCTTTCTATTTACATCAAAATTTTATAACAAATTATTTATACATTCATTGTGATTAACATATTTTTCATACTTTACACATATTACTTAAATTAAGTTTTTTGGTTATACGGAAAAAATGAATTTTTCTTAAACTCTGATCCTTTAATAAATTGCAAATCCAAGCAAAAATCTCAGGATTTTTTACACTCTCTTTTTCTAAAAATGTCCCGAAGTGACATGAAAAAACCGATGAATGACTAAACTTGACATTGTGTATTGTCAAATTTGTGCTTTAATAAAGTCATGGTTTATACAGGGTAT (double strand) [almA promoter]”: no binding [4]; no binding [5].
